Like-named read-outs stand apart in the source and are kept apart here. No constants are given. Whether binding was seen depends on the method and setting. Binding seen in cells or lysates may run through a third protein. These calls come from enrichment with a bait or labelling near it, and not all partners need be listed. For part of these data: A no says only that the protein was not detected with the bait. Tags and fused reporters may be left off the sequences shown. Each block holds one molecule with its values, some of them ahead of it.
Assays:
Test in all cases: proximity labelling; BioID in stable inducible Flp-In T-REx 293 cells expressing BirA*-FLAG baits; mass spectrometry of biotinylated preys; SAINTexpress, two biological replicates per bait, 50 negative control runs, BFDR threshold 1%
[1] = molecular target: T1, ESYT2 fused with BirA*-FLAG (BioID bait) (human) (UniProt A0FGR8)
T1 sequence: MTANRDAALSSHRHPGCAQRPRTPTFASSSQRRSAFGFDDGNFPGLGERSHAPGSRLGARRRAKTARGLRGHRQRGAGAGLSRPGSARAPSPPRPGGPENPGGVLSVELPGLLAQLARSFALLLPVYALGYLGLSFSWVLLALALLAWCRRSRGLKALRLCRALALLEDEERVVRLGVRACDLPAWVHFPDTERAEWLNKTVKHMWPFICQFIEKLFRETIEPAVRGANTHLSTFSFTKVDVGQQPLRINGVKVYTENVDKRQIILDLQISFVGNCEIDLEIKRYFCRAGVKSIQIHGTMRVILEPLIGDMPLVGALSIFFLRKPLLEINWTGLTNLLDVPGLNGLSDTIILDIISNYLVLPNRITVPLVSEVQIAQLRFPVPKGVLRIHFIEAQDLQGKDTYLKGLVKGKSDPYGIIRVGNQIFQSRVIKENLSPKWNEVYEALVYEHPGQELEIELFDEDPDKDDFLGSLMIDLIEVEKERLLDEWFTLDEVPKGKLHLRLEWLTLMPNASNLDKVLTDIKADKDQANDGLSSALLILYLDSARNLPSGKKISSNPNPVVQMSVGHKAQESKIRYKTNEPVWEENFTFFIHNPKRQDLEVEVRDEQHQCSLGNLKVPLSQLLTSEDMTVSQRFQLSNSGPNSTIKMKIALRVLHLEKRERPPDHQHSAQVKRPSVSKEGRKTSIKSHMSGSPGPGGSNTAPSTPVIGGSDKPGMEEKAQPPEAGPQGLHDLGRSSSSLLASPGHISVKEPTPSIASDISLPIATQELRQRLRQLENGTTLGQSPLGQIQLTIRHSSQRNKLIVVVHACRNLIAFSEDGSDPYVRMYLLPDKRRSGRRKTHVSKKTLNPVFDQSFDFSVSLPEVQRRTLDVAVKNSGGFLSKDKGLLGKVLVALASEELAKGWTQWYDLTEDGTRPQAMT

Amino acid sequences for entries named in this document (tags omitted).
UniProt Q14318: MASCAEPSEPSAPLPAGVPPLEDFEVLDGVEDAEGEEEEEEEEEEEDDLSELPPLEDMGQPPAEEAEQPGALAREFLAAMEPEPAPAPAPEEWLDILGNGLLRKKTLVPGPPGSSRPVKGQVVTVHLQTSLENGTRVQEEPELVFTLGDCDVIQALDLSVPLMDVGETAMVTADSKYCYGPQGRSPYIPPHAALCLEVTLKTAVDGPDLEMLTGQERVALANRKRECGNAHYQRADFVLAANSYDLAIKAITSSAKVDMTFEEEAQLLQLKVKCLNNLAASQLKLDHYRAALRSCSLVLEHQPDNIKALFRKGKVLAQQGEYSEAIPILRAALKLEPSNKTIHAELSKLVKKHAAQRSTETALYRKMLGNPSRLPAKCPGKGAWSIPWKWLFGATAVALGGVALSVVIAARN
UniProt P51648: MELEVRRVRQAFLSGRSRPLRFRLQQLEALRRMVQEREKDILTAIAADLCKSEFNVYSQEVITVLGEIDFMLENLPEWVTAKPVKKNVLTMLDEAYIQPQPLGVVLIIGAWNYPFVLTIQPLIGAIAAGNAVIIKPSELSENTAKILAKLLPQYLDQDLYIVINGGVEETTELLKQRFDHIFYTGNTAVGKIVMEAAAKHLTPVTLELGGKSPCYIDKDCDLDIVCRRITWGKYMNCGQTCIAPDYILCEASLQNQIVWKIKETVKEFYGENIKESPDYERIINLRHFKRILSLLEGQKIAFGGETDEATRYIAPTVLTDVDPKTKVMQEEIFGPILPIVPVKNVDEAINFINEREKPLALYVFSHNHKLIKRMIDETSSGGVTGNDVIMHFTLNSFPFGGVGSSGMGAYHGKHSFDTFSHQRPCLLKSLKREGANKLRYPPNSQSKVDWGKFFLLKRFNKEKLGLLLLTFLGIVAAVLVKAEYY

[2] = molecular target: T2, TEX2 fused with BirA*-FLAG (BioID bait) (human) (UniProt Q8IWB9)
T2 sequence: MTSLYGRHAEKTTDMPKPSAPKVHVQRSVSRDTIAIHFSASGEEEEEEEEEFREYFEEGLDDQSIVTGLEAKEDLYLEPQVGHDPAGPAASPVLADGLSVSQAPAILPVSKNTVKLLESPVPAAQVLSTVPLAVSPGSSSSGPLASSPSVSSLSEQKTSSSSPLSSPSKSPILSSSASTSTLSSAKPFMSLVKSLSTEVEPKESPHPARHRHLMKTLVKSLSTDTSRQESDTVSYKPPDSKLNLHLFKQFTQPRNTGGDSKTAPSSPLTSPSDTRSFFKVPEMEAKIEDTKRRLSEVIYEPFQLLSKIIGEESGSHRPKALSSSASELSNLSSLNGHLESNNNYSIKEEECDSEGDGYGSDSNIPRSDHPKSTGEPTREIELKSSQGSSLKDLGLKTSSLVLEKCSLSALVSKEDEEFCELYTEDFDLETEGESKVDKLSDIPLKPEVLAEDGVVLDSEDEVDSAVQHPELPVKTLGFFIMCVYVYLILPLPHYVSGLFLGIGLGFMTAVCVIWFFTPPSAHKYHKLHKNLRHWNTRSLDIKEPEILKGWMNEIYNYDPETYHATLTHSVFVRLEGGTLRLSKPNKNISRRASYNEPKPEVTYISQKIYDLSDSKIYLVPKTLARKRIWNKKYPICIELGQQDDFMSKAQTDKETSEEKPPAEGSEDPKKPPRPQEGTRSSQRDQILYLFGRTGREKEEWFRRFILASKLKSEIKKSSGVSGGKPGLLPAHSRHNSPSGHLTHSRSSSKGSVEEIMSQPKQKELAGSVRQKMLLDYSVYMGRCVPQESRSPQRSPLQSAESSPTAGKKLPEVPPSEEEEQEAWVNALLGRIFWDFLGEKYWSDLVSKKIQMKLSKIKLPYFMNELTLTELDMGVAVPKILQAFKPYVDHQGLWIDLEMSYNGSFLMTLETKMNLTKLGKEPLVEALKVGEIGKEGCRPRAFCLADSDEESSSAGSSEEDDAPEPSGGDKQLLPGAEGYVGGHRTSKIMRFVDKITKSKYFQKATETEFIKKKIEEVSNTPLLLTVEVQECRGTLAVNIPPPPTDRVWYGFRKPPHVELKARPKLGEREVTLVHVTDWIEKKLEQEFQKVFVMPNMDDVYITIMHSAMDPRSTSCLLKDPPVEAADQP

[3] = molecular target: T1, ESYT2 fused with BirA*-FLAG (BioID bait) (human); remark: listed apart in the source
[4] = molecular target: T2, TEX2 fused with BirA*-FLAG (BioID bait) (human); remark: listed apart in the source

binding [1]: binds | binding [2]: binds
Molecule: FKBP8 (from UniProt Q14318 1-412)

binding [1]: binds | binding [2]: binds
Molecule: ALDH3A2 (from UniProt P51648 1-485)

binding [3]: no binding | binding [4]: no binding
B1: SYNJ2BP (endogenous prey in BioID) (protein, UniProt P57105 1-145)
chain: MNGRVDYLVTEEEINLTRGPSGLGFNIVGGTDQQYVSNDSGIYVSRIKENGAAALDGRLQEGDKILSVNGQDLKNLLHQDAVDLFRNAGYAVSLRVQHRLQVQNGPIGHRGEGDPSGIPIFMVLVPVFALTMVAAWAFMRYRQQL

Reference: PMC10627786
